Measurements as given in PubChem BioAssay AID1259415 (National Center for Advancing Translational Sciences (NCATS), 2018).
Several values for one entry are separate records, joined by “and”; a condition that tells them apart may be missing. Equal values may be shown once. The campaign covered roughly 410,000 compounds. About 18,000 (4.4%) were called active. This list was built around the results that the source calls inconclusive (neither active nor inactive); the mix of calls is not that of the screen. Rule as the data show it: active = activity change below about -60%; inconclusive = no clear call, values can overlap the other calls; inactive = above about -39%.

Assay: qHTS Assay for inhibitors of the human cytomegalovirus (HCMV)
Details: HFF cells, HCMV-luciferase reporter, 72 h; at 57.5 µM; stronger effect = lower value
Method in brief: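 Cell-based, HFFs, 1000 cells/well, 16 h 37C; cpds in DMSO + HCMV-luc, MOI 1 PFU/cell; 72 h 37C; OneGlo luminescence after 5 min RT; norm. to buffer vs Salinomycin 10uM.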
% is scaled to controls: 0 for no effect and ±100 for the full control effect.

SMILES | activity change, negative = inhibition
CCOC(=O)C1=C(C)N(C[C@@H]2CC[C@@H](Cc3ccc(-c4ccccc4)cc3)O2)C(=O)NC1c1ccc(-c2ccccc2)cc1 (some centres not stated) | inconclusive: -48.5%
CN(C)CC1CCCCC1OC(=O)c1ccc(Cl)cc1 (configuration not stated) | inconclusive: -45.9%
C=C(C)C1Cc2c(C)nn(-c3cccc4ccccc34)c2C1 (configuration not stated) | inconclusive: -42.3%
CCCS(=O)(=O)c1nc(S(=O)(=O)c2ccc(C)cc2)c(N2CCC3(CC2)OCCO3)s1 | inactive: -35.2%
NC(=O)N/N=C/c1c(O)ccc2oc3c(c12)CCCC3 | inconclusive: -57%
CCCO/N=C1/C(=O)N(c2ccccc2)c2ccccc21 | inconclusive: -59.2%
COC(=O)c1cc(S(=O)(=O)N2CCN(c3ccccc3F)CC2)c[nH]1 | inconclusive: -51.8%
CS(=O)(=O)c1cccc(C(=O)Nc2ccc(S(=O)(=O)N3CCCCC3)cc2)c1 | active: -63.3%
COC(=O)c1ccc(NC(=O)c2ccc(NC(=O)C3CCCO3)cc2)cc1 (configuration not stated) | inconclusive: -53.9%
O=C(NCc1ccccn1)c1cc(Cl)ccc1OCc1ccccc1 | inconclusive: -49%
Cc1ccc(C)c(N2CCN(S(=O)(=O)c3ccc(C(=O)N(C)C)s3)CC2)c1 | inconclusive: -55.3%
Cc1ccccc1Cn1cc(NS(=O)(=O)c2cn(C)nc2C)cn1 | active: -60.2%
Cc1ccc(Nc2nc(=O)c3cc([N+](=O)[O-])ccc3s2)cc1 | inconclusive: -57.4%
Cc1ccc(-c2nn(-c3ccccc3)cc2NC(=O)c2ccccc2)cc1 | inactive: 4.82%
CN(CC(O)COc1c(F)cc(Br)cc1F)C1CCCCC1 (configuration not stated) | inconclusive: -40%
CCOC(=O)c1ccc2c(c1)n(Cc1ccccc1)c(C)[n+]2CC | inconclusive: -44%
COc1ccc(CCNCc2c(C(=O)O)c(C)n(Cc3cccc(Cl)c3)c2C)c(OC)c1OC | inconclusive: -45.7%
O=C(/C=C/c1ccc(Cl)cc1)N1CCC(c2nc3ccccc3o2)CC1 | inactive: -28.3%
Cc1cccc(OCCC(=O)Nc2ccc(F)c(Cl)c2)c1 | inconclusive: -50.2%
C=CCNc1nc(-c2ccc(Cl)cc2)cs1 | inactive: 12.6%
CCCCN(CC)CCCNC(=O)c1cn(CC)c2ccc(S(=O)(=O)N3CCc4ccccc4C3)cc2c1=O | active: -60% and inconclusive: -53.2%
Cc1cc(N/N=C2\CC(C)CC(C)(C)C2)nc2ccccc12 (configuration not stated) | inconclusive: -46.5%

SMILES | activity change, negative = inhibition
CCOC(=O)CNC(=S)n1cnc(N)n1 | inconclusive: -49%
CCCn1c(=O)c2sccc2n2c(CCCC(=O)N3CCN(c4cccc(Cl)c4)CC3)nnc12 | inconclusive: -40.3%
CC(=O)c1cccc(NC(=O)CN2C(=O)CC(c3ccc(C)cc3C)=Nc3ccccc32)c1 | inactive: 29.5%
O=C(C1COc2ccccc2O1)N1CCN(Cc2ccc(Br)cc2F)CC1 (configuration not stated) | inconclusive: -41.9%
COC(=O)c1c(C)[nH]c(C(=O)OCC(=O)c2ccc(C)s2)c1C | inactive: 51.6%
COC(=O)c1cc(N=Nc2c(C)[nH]c3ccccc23)cc(C(=O)OC)c1 | inconclusive: -42.9%
COc1ccc(-c2nsc3c(N4CCN(C(=O)c5ccco5)CC4)ncnc23)cc1 | inactive: -13.9%
Cc1cc(C(=S)N2CCOCC2)c(C)n1-c1ccc(F)cc1 | inactive: -20.4%
Cc1ccc(C(=O)NC(=S)Nc2cc(-c3nc4ccccc4s3)ccc2C)cc1 | inactive: 11.4%
Cc1ccc(-c2ccccc2NC(=O)CS(=O)CC(=O)Nc2ccc(C)c(Cl)c2)o1 (configuration not stated) | inconclusive: -46.6%
CCS(=O)(=O)c1nc(S(=O)(=O)c2ccc(Cl)cc2)c(N2CCC(C(N)=O)CC2)s1 | inconclusive: -54.8%
CC(C)c1ccc(C(=O)NC(=S)NCc2cccnc2)cc1 | active: -73.6%
CCN1CCCc2cc(CN(CCN3CCOCC3)C(=S)Nc3ccc(OC)c(Cl)c3)ccc21 | inactive: -31.6%
COc1ccc(NS(=O)(=O)c2ccc3c(c2)N(C(C)=O)CCO3)c(OC)c1 | inactive: 11.2%
Cn1nnnc1SCc1ccc(F)cc1 | inconclusive: -44.9%
C(=N\Nc1nc2ccccc2s1)/c1ccc2c(c1)OCO2 | inactive: 87.5%
Nc1ccc(NC(=O)NC2CCCCC2)cc1 | inconclusive: -42.5%
CC(C)CCn1c(N2CCOCC2)nc2c1c(=O)n(CC(N)=O)c(=O)n2C | inconclusive: -50.2%
CCN1CCN(CCCNC(=O)C2c3ccccc3C(=O)N(c3ccc(OC)cc3)C2c2ccc(OC)cc2)CC1 (configuration not stated) | active: -61.7%
COc1ccc(C)cc1S(=O)(=O)Nc1ccncc1 | inconclusive: -45%
Cn1cc(/C=C(\C#N)C(=O)Nc2cccc([N+](=O)[O-])c2)c2ccccc21 | inconclusive: -54.6%
CCOc1ncccc1C(=O)OC(C)C(=O)Nc1ccc(Cl)cn1 (configuration not stated) | inactive: 12.2%

6 entries drawn at random from the list so far, as already listed:
SMILES | activity change, negative = inhibition
CCOc1ncccc1C(=O)OC(C)C(=O)Nc1ccc(Cl)cn1 (configuration not stated) | inactive: 12.2%
CCOC(=O)CNC(=S)n1cnc(N)n1 | inconclusive: -49%
CN(C)CC1CCCCC1OC(=O)c1ccc(Cl)cc1 (configuration not stated) | inconclusive: -45.9%
COC(=O)c1cc(N=Nc2c(C)[nH]c3ccccc23)cc(C(=O)OC)c1 | inconclusive: -42.9%
Cn1cc(/C=C(\C#N)C(=O)Nc2cccc([N+](=O)[O-])c2)c2ccccc21 | inconclusive: -54.6%
COc1ccc(NS(=O)(=O)c2ccc3c(c2)N(C(C)=O)CCO3)c(OC)c1 | inactive: 11.2%

Following part:

SMILES | activity change, negative = inhibition
CC(C)Nc1ncnc2c1ncn2[C@H]1CN(Cc2cccnc2)C[C@@H](CO)O1 | inactive: 2.02%
C/C(CC(C)(C)C1CCCCC1)=N\NC(N)=S | active: -87.8%
Cc1noc(C)c1S(=O)(=O)N1CCN(S(=O)(=O)c2ccccc2C#N)CC1 | inactive: 9.83%
Cc1cc(C)c2c(CCl)cc(=O)oc2c1 | active: -95.2%
CC(C)COc1ccc(C(=O)OCCN2CCCCC2)cc1 | inactive: -26.4%
CCc1nc2ccc(C(=O)N(C)CCCN(C)C)cn2c1N(CC)CCOC | inactive: -10.1%
CSCCC(NS(=O)(=O)c1ccc(C)c(C(=O)O)c1)C(=O)O (configuration not stated) | active: -63.8%
COc1cc(CN2CCC(n3nccc3NC(=O)c3ccc4c(c3)OCO4)CC2)ccc1O | inconclusive: -43.9%
CCOC(=O)c1c(NC(=O)CSc2nnnn2C)sc(C)c1-c1ccc(C)cc1 | inconclusive: -47.7%
COc1ccc2c(c1OC)C(=O)O[C@H]2[C@@H]1c2cc3c(cc2CCN1C)OCO3 | inconclusive: -49.5%
Cc1ncoc1C(=O)N1CCCC(N2CCN(c3ccccc3F)CC2)C1 (configuration not stated) | inconclusive: -45.7%
CC(C)COc1ccc(C(=O)Nc2sc3c(c2C(=O)O)CC(C)(C)OC3)cc1 | inconclusive: -59.1%
CCCOc1ccc(C(=O)NCC(c2ccco2)N(C)C)cc1 (configuration not stated) | inactive: -29.2%
O=C(/C=C/c1ccccc1[N+](=O)[O-])NCCc1ccc(F)cc1 | inconclusive: -42.8%
O=C(c1cc(-c2cccc(Br)c2)nc2ccccc12)N1CCCC1 | inconclusive: -42.7%
Cc1ccccc1-n1c(C)nnc1SCC(=O)NNC(=O)c1ccccc1 | inconclusive: -42%
COc1ccc(C(=O)Nc2ccc(C)cn2)cc1S(=O)(=O)N1CCCc2ccccc21 | inconclusive: -44.5%
COc1ccc(-c2nc3ccccn3c2CN2CCN(c3ccccc3F)CC2)cc1 | active: -60.8%
Cc1c(C(=O)Nc2nnc(C(F)(F)F)s2)oc2ccccc12 | active: -84.5%
COc1cc2c3c(c1)C(C)=CC(C)(C)N3C(=O)C2=O | active: -84.6%
Cc1ccc(-n2ncc3c(N4CCN(c5ccccc5)CC4)ncnc32)c(C)c1 | active: -81.8%
COc1ccc(CNC(=O)CC(c2ccc(OC)cc2)N2Cc3ccccc3C2=O)cc1 (configuration not stated) | inconclusive: -40.7%

SMILES | activity change, negative = inhibition
CC(=O)Nc1ccc(S(=O)(=O)N2CCN=C2SCc2ccc([N+](=O)[O-])cc2)cc1 | inconclusive: -56.5%
COc1ccc(OC)c(C2=NNC(=NCc3ccc4c(c3)OCO4)SC2)c1 | inconclusive: -49.5%
O=C(Nc1ccc(S(=O)(=O)N2CCOCC2)cc1)C1CC1 | inactive: -14.9%
COc1cc2[nH]c(=S)nc(NC3CCCCCC3)c2cc1OC | active: -74%
FC(F)(F)c1ccc(C2[C@H]3CN(Cc4ccc(-c5ccccc5)cc4)[C@H](c4ccccc4)C34CC2(c2cccnc2)C4)cc1 (some centres not stated) | inconclusive: -49.2%
O=C1NC(=O)C(=Cc2ccc(OCCOc3ccc([N+](=O)[O-])cc3)cc2)C(=O)N1 | inactive: 9.62%
CCOC(=O)C1(Cc2cccc(OC)c2)CCN(Cc2cccc(OC)c2OC)CC1 | inconclusive: -51.6%
COc1ccc(C2C=C(c3ccc(Cl)cc3)Nc3nc(-c4ccc(Cl)cc4)nn32)cc1 (configuration not stated) | active: -101%
Cc1ccc(C(OCC(O)CNCc2ccc(F)cc2)c2ccccc2)cc1 (configuration not stated) | active: -102%
COc1cc2c(cc1OC)C(c1cccs1)N(C(=O)c1cccc(S(=O)(=O)N(C)C)c1)CC2 (configuration not stated) | inconclusive: -47.3%
COCC(C)NS(=O)(=O)c1ccccc1 (configuration not stated) | inconclusive: -42.7%
O=C(CS(=O)c1ccc(F)cc1)Nc1ccccc1Cl (configuration not stated) | active: -77.4%
Cc1[nH]c(SCC(=O)Nc2cc(C(N)=O)cc(C(N)=O)c2)nc1Cc1ccccc1 | inconclusive: -50.5%
CCC(C)C(=O)Nc1nc(C)c(-c2csc(Nc3ccc(Cl)cc3)n2)s1 (configuration not stated) | active: -90.4%
COc1ccc(C(=O)c2nccc3ccccc23)cc1 | inconclusive: -57%
CC(O)CNc1nc2c(c(=O)n(C)c(=O)n2C)n1Cc1cccc(C(F)(F)F)c1 (configuration not stated) | inactive: -9.41%
Cc1ccc(-c2noc(-c3ccc(N4CCN(C)CC4)c([N+](=O)[O-])c3)n2)cc1 | inconclusive: -43.3%
CNC(=S)Nc1cc(Cl)ccc1Oc1ccccc1 | inconclusive: -59.9%
O=S(=O)(NCc1cccnc1)c1ccc2ccccc2c1 | active: -63.3%
O=C1NC(c2ccccc2Cl)=N/C1=C/c1ccco1 | inconclusive: -44%
O=C(Nc1cccc(Cl)c1N1CCCC1)c1ccc(Br)o1 | inconclusive: -43.9%
